The values below come from article PMC9623568.

The chains behind the UniProt entries cited, without tags or fusion partners. Residues count along the entry.
UniProt Q03135: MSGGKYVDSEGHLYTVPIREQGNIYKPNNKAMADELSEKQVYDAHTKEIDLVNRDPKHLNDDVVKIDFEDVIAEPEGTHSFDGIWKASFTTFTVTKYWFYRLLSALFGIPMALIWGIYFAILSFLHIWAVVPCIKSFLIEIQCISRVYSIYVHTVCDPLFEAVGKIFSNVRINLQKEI
UniProt Q00610: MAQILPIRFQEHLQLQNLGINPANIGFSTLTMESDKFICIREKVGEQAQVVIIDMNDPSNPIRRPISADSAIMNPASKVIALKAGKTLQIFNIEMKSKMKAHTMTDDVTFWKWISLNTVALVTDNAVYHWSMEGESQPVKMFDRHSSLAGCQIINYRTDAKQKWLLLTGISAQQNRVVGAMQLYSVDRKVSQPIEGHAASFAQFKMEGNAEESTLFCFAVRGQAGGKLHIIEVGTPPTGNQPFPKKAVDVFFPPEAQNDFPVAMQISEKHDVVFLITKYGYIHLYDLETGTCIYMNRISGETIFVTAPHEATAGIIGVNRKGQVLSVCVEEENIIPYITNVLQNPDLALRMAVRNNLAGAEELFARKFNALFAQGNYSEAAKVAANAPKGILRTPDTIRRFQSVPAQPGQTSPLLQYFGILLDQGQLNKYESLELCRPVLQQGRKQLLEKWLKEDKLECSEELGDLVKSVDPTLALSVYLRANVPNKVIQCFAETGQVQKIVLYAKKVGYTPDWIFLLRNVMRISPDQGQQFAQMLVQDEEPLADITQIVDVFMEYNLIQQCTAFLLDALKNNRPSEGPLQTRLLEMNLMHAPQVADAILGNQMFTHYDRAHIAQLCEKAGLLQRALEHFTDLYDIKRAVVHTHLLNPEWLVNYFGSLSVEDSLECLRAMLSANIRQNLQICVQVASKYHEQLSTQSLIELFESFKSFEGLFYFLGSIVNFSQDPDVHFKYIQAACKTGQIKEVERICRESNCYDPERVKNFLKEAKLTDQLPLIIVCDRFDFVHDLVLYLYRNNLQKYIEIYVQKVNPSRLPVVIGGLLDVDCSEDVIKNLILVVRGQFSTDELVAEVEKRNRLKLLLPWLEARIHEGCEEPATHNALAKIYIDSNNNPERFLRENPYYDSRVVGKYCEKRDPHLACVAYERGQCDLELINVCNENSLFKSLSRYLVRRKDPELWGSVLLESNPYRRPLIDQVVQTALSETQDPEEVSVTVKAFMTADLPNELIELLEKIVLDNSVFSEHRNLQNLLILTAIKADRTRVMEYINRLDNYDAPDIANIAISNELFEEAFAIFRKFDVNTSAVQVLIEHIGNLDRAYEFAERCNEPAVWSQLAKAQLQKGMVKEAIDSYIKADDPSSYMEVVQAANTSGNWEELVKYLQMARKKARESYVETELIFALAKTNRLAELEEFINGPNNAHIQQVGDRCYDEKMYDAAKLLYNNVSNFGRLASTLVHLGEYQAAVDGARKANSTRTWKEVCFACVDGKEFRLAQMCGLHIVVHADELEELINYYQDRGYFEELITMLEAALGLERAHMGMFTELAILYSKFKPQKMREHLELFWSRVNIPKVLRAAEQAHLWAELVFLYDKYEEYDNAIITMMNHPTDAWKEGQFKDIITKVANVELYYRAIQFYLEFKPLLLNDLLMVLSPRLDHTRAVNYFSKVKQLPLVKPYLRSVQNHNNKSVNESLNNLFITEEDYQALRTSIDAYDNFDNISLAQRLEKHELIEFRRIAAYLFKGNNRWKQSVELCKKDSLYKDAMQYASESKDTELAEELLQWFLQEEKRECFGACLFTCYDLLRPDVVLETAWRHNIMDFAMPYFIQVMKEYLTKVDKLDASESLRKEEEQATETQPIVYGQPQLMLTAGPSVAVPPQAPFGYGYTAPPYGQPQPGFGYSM
UniProt O75581, residues 20-1613: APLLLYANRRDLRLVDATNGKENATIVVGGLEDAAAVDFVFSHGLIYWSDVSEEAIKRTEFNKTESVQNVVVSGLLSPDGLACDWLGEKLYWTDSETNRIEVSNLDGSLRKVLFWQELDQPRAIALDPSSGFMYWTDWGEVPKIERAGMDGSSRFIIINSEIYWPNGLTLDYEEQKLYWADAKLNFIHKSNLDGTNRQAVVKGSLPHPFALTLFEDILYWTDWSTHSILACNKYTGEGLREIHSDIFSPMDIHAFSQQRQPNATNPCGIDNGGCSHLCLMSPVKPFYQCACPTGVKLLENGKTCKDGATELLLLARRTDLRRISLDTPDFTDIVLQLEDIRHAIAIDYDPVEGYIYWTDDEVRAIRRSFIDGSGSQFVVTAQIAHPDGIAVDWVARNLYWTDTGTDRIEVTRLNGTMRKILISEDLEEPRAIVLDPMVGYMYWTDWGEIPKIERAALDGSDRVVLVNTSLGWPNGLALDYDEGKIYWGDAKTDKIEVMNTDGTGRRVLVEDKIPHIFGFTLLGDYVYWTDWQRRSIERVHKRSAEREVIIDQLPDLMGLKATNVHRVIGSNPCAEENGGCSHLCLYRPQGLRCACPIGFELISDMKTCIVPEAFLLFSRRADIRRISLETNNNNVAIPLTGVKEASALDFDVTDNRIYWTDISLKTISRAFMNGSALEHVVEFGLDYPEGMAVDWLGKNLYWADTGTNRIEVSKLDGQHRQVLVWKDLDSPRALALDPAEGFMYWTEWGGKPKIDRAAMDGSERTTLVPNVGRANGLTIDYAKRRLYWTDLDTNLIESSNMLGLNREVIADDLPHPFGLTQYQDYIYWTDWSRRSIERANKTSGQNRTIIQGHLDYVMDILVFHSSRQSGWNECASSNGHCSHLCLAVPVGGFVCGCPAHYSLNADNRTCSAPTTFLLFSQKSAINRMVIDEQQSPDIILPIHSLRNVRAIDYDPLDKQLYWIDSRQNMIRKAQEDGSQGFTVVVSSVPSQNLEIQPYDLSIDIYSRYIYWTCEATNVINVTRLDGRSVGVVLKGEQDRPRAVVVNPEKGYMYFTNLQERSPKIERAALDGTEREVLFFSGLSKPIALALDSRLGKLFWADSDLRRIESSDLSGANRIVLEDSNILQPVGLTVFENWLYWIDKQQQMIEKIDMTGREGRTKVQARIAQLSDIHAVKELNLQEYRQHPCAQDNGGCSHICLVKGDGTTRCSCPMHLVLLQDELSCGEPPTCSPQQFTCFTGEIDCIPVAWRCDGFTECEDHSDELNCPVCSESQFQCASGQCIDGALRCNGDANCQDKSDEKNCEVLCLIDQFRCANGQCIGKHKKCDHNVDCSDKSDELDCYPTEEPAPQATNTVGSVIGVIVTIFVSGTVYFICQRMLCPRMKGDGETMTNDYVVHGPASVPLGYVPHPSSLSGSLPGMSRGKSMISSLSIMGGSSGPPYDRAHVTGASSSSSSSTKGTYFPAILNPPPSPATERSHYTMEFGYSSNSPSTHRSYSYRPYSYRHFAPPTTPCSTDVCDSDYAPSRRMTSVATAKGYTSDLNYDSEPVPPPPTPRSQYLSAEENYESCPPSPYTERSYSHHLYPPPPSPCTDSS
UniProt P49841: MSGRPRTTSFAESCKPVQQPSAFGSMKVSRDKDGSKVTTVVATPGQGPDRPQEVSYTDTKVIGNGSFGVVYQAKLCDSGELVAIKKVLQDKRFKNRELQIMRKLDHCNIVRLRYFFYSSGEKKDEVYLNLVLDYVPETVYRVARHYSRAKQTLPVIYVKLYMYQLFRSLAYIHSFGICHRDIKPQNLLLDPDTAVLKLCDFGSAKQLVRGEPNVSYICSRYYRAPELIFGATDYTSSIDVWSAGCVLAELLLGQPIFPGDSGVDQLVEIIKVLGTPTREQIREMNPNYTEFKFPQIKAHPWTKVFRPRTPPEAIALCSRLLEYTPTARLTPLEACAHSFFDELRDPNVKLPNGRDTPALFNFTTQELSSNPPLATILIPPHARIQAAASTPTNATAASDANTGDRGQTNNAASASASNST

Common to all, as to assay: co-IP; Triton X-100 (1%) insoluble fractions of vector- or DAB2 cDNA-transfected SW480-FR cells, with or without WNT3A for 12 hours; pooled OptiPrep raft (3-4) and non-raft (7-8) fractions immunoprecipitated with anti-caveolin-1 or anti-clathrin; Western blot
In general terms: A western blot detects proteins with antibodies after separation by electrophoresis.

For experiment [1], the target named is caveolin-1, endogenous (human (endogenous in SW480-FR)) (UniProt Q03135).
Experiment [2] deals with clathrin, endogenous (human (endogenous in SW480-FR)) (UniProt Q00610).
Experiment [3] concerns the target LRP6, endogenous (human (endogenous in SW480-FR)) (UniProt O75581).

These are yes or no findings as the source states them, for the method shown. In cells and extracts the contact can be indirect. Some results given as binding are weak or reduced against the parent protein; the word gives no strength.

Consider “GSK3β, endogenous (from UniProt P49841 1-420) (enzyme)”, for which the results for the binding result in experiment [1] and in experiment [2] were “binds” and “no binding”, respectively.

B1: DAB2 (disabled-2), ectopically expressed (protein, UniProt P98082 1-770)
chain: MSNEVETSATNGQPDQQAAPKAPSKKEKKKGPEKTDEYLLARFKGDGVKYKAKLIGIDDVPDARGDKMSQDSMMKLKGMAAAGRSQGQHKQRIWVNISLSGIKIIDEKTGVIEHEHPVNKISFIARDVTDNRAFGYVCGGEGQHQFFAIKTGQQAEPLVVDLKDLFQVIYNVKKKEEEKKKIEEASKAVENGSEALMILDDQTNKLKSGVDQMDLFGDMSTPPDLNSPTESKDILLVDLNSEIDTNQNSLRENPFLTNGITSCSLPRPTPQASFLPENAFSANLNFFPTPNPDPFRDDPFTQPDQSTPSSFDSLKSPDQKKENSSSSSTPLSNGPLNGDVDYFGQQFDQISNRTGKQEAQAGPWPFSSSQTQPAVRTQNGVSEREQNGFSVKSSPNPFVGSPPKGLSIQNGVKQDLESSVQSSPHDSIAIIPPPQSTKPGRGRRTAKSSANDLLASDIFAPPVSEPSGQASPTGQPTALQPNPLDLFKTSAPAPVGPLVGLGGVTVTLPQAGPWNTASLVFNQSPSMAPGAMMGGQPSGFSQPVIFGTSPAVSGWNQPSPFAASTPPPVPVVWGPSASVAPNAWSTTSPLGNPFQSNIFPAPAVSTQPPSMHSSLLVTPPQPPPRAGPPKDISSDAFTALDPLGDKEIKDVKEMFKDFQLRQPPAVPARKGEQTSSGTLSAFASYFNSKVGIPQENADHDDFDANQLLNKINEPPKPAPRQVSLPVTKSTDNAFENPFFKDSFGSSQASVASSQPVSSEMYRDPFGNPFA
Take B1: the binding result in experiment [3] is “binds”.
